{
  "source": "patent US10441616B2",
  "about": "“Pharmaceutical composition for treating or preventing sensorineural hearing loss, containing cysteinyl leukotriene receptor antagonist and ginkgo leaf extract” (AJOU UNIVERSITY INDUSTRY-ACADEMIC COOPERATION FOUNDATION, priority 2014, dated 2019)",
  "key": {"[1]": {"system": "noise-induced injury of the cochlea", "assay": "Auditory brainstem response (ABR) hearing threshold shift after noise exposure, montelukast post-treatment", "assay_type": "in vivo, BALB/c mouse", "settings": "ABR at 14 day of noise exposure; montelukast administrated for 4 days; compared with only-noise exposure group", "description": "Noise stimuli were applied based on 0 day, montelukast was treated for 3 days, mice were sacrificed at 1 day, 3 day, 7 day, and 14 day, and then the changes thereof were observed. Immunohistochemistry, PCR, and a western blot test for examining changes in receptor expression levels by using tissues obtained at a noise stimulation test day, 1 day, 3 day, and 7 day were performed, respectively. Changes in permanent hearing threshold immediately before scarifying the mouse were verified by an auditory brainstem response test at 14 day and thereafter, a surface preparation method and a scanning electron microscopy test for evaluating the tissue damage were performed. […]\nWhether the montelukast prevented noise-induced injury of the cochlea was evaluated (see FIGS. 5A and 5B). […] ABR measurement was performed by the existing method, and hearing was evaluated by a Biosig 32 ABR system (Tucker-Davis Technologies, Gainesville, Fla.). […] A brainstem response was percutaneously recorded by using sterile electrode needle. A reference electrode was inserted behind the ear to be measured and active electrodes were inserted behind the opposite ear and the skin of the head. […] At each frequency, averages of 1,000 stimuli were collected and respective results were recorded and stored. […] The ABR for 16 and 32 kHz stimuli was recorded before exposure of the noise and at 1 day and 14 day for exposure of the noise. […]"}, "[2]": {"system": "noise-induced injury of the cochlea", "assay": "Hearing threshold shift with co-administration of montelukast and Ginkgo biloba extract (ABR as in Example 3)", "assay_type": "in vivo, mouse", "settings": "montelukast 10 mg/kg, EgB 32.4 mg/kg orally; compared with only-noise treatment (FIG. 11)"}, "[3]": {"settings": "10 mg/kg"}},
  "data": [
    {"smiles": "CC(C)(O)c1ccccc1CCC(SCC1(CC(=O)[O-])CC1)c1cccc(/C=C/c2ccc3ccc(Cl)cc3n2)c1.[Na+]", "note": "(stereo not drawn) [montelukast]", "values": [
      {"measurement": "reduction of permanent threshold shift (PTS)", "setting": "[1]", "result": "approximately 50%"},
      {"measurement": "hearing protection effect (hearing threshold shift)", "setting": "[2]", "result": "hearing protection effect was shown"},
      {"measurement": "toxicity of concentration used", "setting": "[3]", "result": "non-toxic level"}
    ]}
  ]
}
